Data taken from patent US5677420A (Kyowa Hakko Kogyo Co., Ltd., priority 1995, dated 1997).
HELM strings list residues between dots; [ac] is acetyl, [am] amide, other brackets name non-standard units.

experiment: general procedure: Fmoc solid-phase peptide synthesis; Rink amide-resin or Rink amide-MBHA-resin (Carbiochem-Novabiochem Japan, Inc.); PyBOP/HOBt/NMM; details: whole synthesis, scale 50 mg resin

Going from “Ac-Leu-Tyr-Arg-Lys-Met-Arg-Leu-Arg-Tyr-Pro-Val-Add-NH2” to “Ac-Leu-Tyr-Arg-Lys-Met-Arg-Leu-Arg-Tyr-Pro-Val-Ahp-NH2”, the crude mass falls from 22.3 mg to 20.0 mg.

Compared with “Ac-Leu-Tyr-Arg-Lys-Met-Arg-Leu-Arg-Tyr-Pro-Val-Ape-NH2”, “Ac-Leu-Tyr-Arg-Lys-Met-Arg-Leu-Arg-Tyr-Pro-Val-Aud-NH2” is higher in crude mass: 36.5 mg for the first, 43.1 mg for the second.

Going from “C3 H7 CO-Leu-Tyr-Arg-Lys-Met-Arg-Leu-Arg-Tyr-Pro-Val-Add-NH2” to “CH3 (CH2)16 CO-Leu-Tyr-Arg-Lys-Met-Arg-Leu-Arg-Tyr-Pro-Val-Add-NH2”, the crude mass rises from 35.3 mg to 45.8 mg.

Going from “PEPTIDE1{[ac].L.Y.R.K.M.R.L.R.Y.P.V.[Ahx].[am]}$$$$V2.0” to “PEPTIDE1{[ac].L.Y.R.K.M.R.L.R.Y.P.V.[Aoc].[am]}$$$$V2.0”, the crude mass falls from 40.0 mg to 37.8 mg.

Going from “Ac-Leu-Tyr-Arg-Lys-Met-Arg-Leu-Arg-Tyr-Pro-Val-Add-NH2” to “Ac-Leu-Tyr-Arg-Lys-Met-Arg-Leu-Arg-Tyr-Pro-Val-Ahp-NH2”, the isolated mass rises from 3.9 mg to 5.0 mg.

Going from “Ac-Leu-Tyr-Arg-Lys-Met-Arg-Leu-Arg-Tyr-Pro-Val-Ape-NH2” to “Ac-Leu-Tyr-Arg-Lys-Met-Arg-Leu-Arg-Tyr-Pro-Val-Aud-NH2”, the isolated mass rises from 6.3 mg to 13.1 mg.

First: C3 H7 CO-Leu-Tyr-Arg-Lys-Met-Arg-Leu-Arg-Tyr-Pro-Val-Add-NH2
Second: CH3 (CH2)16 CO-Leu-Tyr-Arg-Lys-Met-Arg-Leu-Arg-Tyr-Pro-Val-Add-NH2
The isolated mass of the first is lower: 26.4 mg for the first, 30.8 mg for the second.

Going from “PEPTIDE1{[ac].L.Y.R.K.M.R.L.R.Y.P.V.[Ahx].[am]}$$$$V2.0” to “PEPTIDE1{[ac].L.Y.R.K.M.R.L.R.Y.P.V.[Aoc].[am]}$$$$V2.0”, the isolated mass falls from 13.9 mg to 10.3 mg.
